From paper doi:10.1101/2021.01.04.425182

The chains behind the UniProt entries cited, without tags or fusion partners. Where a name states a change or a piece, a line headed by the entry shows the natural chain unless it says otherwise.
UniProt P09038: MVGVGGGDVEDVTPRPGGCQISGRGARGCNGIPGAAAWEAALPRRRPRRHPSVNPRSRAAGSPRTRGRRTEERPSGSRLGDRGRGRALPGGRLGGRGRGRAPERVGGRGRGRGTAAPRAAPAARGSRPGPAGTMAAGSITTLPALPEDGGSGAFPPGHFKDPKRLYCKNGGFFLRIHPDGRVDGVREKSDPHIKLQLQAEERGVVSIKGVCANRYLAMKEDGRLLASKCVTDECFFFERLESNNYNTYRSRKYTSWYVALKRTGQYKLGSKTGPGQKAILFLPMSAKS
UniProt P01137: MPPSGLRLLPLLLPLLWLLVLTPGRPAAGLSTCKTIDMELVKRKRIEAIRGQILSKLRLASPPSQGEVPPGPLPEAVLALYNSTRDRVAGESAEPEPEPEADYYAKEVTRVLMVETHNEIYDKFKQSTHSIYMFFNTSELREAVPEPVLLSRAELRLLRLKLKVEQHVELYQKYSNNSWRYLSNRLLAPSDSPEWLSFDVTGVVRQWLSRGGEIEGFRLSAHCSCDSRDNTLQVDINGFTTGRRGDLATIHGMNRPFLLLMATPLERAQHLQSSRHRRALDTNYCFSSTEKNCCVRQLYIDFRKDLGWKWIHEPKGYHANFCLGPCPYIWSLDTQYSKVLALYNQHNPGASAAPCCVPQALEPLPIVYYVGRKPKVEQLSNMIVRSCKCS
UniProt P05230: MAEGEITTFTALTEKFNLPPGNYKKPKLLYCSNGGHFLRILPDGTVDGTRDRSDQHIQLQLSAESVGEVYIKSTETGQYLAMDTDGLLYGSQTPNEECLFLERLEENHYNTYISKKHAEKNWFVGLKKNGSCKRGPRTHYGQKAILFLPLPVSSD

Target: T1, prolargin (PRELP), recombinant human (human) (UniProt P51888)
T1 sequence: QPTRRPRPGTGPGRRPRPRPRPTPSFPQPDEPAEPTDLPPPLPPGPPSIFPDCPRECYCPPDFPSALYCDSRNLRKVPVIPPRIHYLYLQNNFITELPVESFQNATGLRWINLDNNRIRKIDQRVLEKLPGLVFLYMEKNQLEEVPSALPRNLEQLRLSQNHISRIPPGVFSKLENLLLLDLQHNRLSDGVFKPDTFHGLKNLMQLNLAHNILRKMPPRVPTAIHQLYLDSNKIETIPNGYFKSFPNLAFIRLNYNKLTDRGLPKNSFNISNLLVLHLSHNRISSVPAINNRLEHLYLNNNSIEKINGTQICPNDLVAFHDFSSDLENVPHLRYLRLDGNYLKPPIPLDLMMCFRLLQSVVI
Assay: SPR

Substance | binding
FGF2 (from UniProt P09038) (ligand) | binds
TGF-β1 (from UniProt P01137) (ligand) | binds
FGF1 (from UniProt P05230) (ligand) | binds

Results are given in words; binding and its absence hold for the method and conditions named. Binding can be weak; no strength is given.
